Reference: patent US20150038682A1
Results are given in words; binding and its absence hold for the method and conditions named. Some entries that bind do so weakly or less than the wild type.

The chains behind the UniProt entries cited, without tags or fusion partners. Residues count along the entry.
UniProt P43489, residues 29-277: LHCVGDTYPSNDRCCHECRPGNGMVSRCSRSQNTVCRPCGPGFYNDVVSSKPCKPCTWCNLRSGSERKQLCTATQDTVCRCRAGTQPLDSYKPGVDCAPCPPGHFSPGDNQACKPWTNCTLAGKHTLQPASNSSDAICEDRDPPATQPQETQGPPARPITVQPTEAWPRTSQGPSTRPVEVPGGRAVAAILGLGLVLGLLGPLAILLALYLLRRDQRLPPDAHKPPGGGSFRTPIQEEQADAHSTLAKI

Molecular target: human OX40 on cells (human) (UniProt P43489)
Test: flow cytometry using OX40-expressing cells

binding: binds
B1: HuOHX10-IgG1 (antibody, V domains shown)
VH: QVTLRESGPALVKPTQTLTLTCTFSGFSLSTSGVGVGWIRQPPGKALEWLAHIWWDDDKYYNTALKSGLTISKDTSKNQVVLTMTNMDPVDTATYYCARIDWDGIAYWGQGTLVTVSS
VL: EIVLTQSPATLSLSPGERATLSCRASSSVSYMHWYQQKPGQAPRPWIYATSNLASGIPARFSGSGSGTDYTLTISSLEPEDFAVYYCQQWSSNPWTFGGGTKVEIK
